Results: PubChem BioAssay (NCATS)
Inconclusive results, whose numbers are uncertain, are shown with a selection of clear calls. Where the call is inconclusive, the potency comes from a doubtful curve fit. Calls of active or inactive are those of the source. The call rests on the fitted dose curve; in most records, active means well fitted cell-killing curve with a large enough effect; inconclusive means small, poorly fitted or top-dose-only effect, or effect the other way; inactive means no such curve, though single readings can be large or run the other way.

Experiment: Quantitative High-Throughput drug screen in 47 multiple myeloma cell lines against the NCATS MIPE library collection: KMS12PE_JCRB cell viability assay (AID 1918972); further: nearly all actives have a fitted effect of over 30% in size;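 on viability: 100% = DMSO only wells and 0% = wells with media alone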
Details: KMS12PE myeloma viability, CellTiter-Glo ATP, 48 h; series mostly up to 45.8 µM; viability: at the top concentration
Outline: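 Approved and investigational drugs from MIPE 4.0 were added by pin tool to 500 cells per well. After 48 hours at 37C, ATP-based CellTiter-Glo luminescence indicated remaining viability.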
Potency means the concentration at half of the fitted maximal effect.

| Compound | Potency | viability |
| --- | --- | --- |
| CC1=C(C)C(=O)C(C(CCCCCC(=O)O)c2ccccc2)=C(C)C1=O (centres undefined) | inconclusive: 0.0026 µM [rising, full curve] |  |
| CO[C@H]1C(=O)[C@]2(C)[C@@H](OC)C[C@H]3OC[C@@]3(OC(C)=O)[C@H]2[C@H](OC(=O)c2ccccc2)[C@]2(O)C[C@H](OC(=O)[C@H](O)[C@@H](NC(=O)OC(C)(C)C)c3ccccc3)C(C)=C1C2(C)C |  | inactive: 97.2% |
| C[C@@H]1CCN(C(=O)CC#N)C[C@H]1N(C)c1ncnc2[nH]ccc12 |  | inactive: 71.8% |
| CCc1ccc(C=C2SC(=S)NC2=O)cc1 | inconclusive: 33.2 µM [cytotoxic, single point] |  |
| O=c1c(-c2ccc(O)cc2)coc2cc(O)ccc12 |  | inactive: 109% |
| Cc1cccc(C#Cc2ccccc2)n1 |  | inactive: 124% |
| Nc1nc(F)nc2c1ncn2[C@@H]1O[C@H](COP(=O)(O)O)[C@@H](O)[C@H]1O | inconclusive: 23.5 µM [cytotoxic, single point] |  |
| O=C(NNC(=O)c1ccc(CNS(=O)(=O)c2ccc(F)c(Cl)c2)cc1)c1ccccc1 | inconclusive: 20.9 µM [cytotoxic, partial curve, poor fit] |  |
| O=C(Nc1ccccc1)Nc1ccc(-c2ccc(C(=O)[C@H]3CCC[C@H]3C(=O)O)cc2)cc1 | inconclusive: 23.5 µM [cytotoxic, single point] |  |
| NC1CCC(Nc2nc(Nc3ccc(C(=O)N4CCCCC4)cc3)c3ncn(-c4cccc(F)c4)c3n2)CC1 (centres undefined) |  | inactive: 98.1% |
| O=C(O)c1cccc(-c2noc(-c3ccccc3F)n2)c1 | inconclusive: 23.5 µM [cytotoxic, single point] |  |
| O=c1c(O)c(-c2ccc(O)c(O)c2)oc2cc(O)cc(O)c12 | inconclusive: 20.9 µM [cytotoxic, partial curve] |  |
| Cc1[nH]c(C=C2C(=O)Nc3ccccc32)c(C)c1CCC(=O)O | active: 9.35 µM |  |
| CC1(C)OC2=C(C(=O)c3ccccc3C2=O)[C@H](NCc2ccccc2)[C@H]1O | active: 1.48 µM |  |
| C[C@H](Cc1ccc(O)c(O)c1)[C@@H](C)Cc1ccc(O)c(O)c1 | inconclusive: 11.8 µM [cytotoxic, single point] |  |
| CC[C@@H](C)[C@H](NC(=O)[C@H](CC1CCCCC1)NC(=O)c1ccno1)C(=O)N1CCC2(CCc3ccccc32)CC1 |  | inactive: 82.6% |
| CS(=O)(=O)CCNCc1ccc(-c2ccc3ncnc(Nc4ccc(OCc5cccc(F)c5)c(Cl)c4)c3c2)o1 | active: 4.69 µM |  |
| CC(C)(C)COc1ccc(-n2cc(C(=O)O)cn2)cc1C#N |  | inactive: 132% |
| CC(=O)Oc1cc2c(s1)CCN(C(C(=O)C1CC1)c1ccccc1F)C2 (centres undefined) | inconclusive: 1.18 µM [cytotoxic, full curve] |  |
| COc1cc2c(cc1OC)CN(CCc1ccc(NC(=O)c3cc(OC)c(OC)cc3NC(=O)c3cnc4ccccc4c3)cc1)CC2 |  | inactive: 100% |

An excerpt of these results, tab-delimited.
Compound	Potency	viability
Cc1[nH]c(C=C2C(=O)Nc3ccccc32)c(C)c1CCC(=O)O	active: 9.35 µM	
CC1(C)OC2=C(C(=O)c3ccccc3C2=O)[C@H](NCc2ccccc2)[C@H]1O	active: 1.48 µM	
C[C@H](Cc1ccc(O)c(O)c1)[C@@H](C)Cc1ccc(O)c(O)c1	inconclusive: 11.8 µM [cytotoxic, single point]	
CC[C@@H](C)[C@H](NC(=O)[C@H](CC1CCCCC1)NC(=O)c1ccno1)C(=O)N1CCC2(CCc3ccccc32)CC1		inactive: 82.6%
CS(=O)(=O)CCNCc1ccc(-c2ccc3ncnc(Nc4ccc(OCc5cccc(F)c5)c(Cl)c4)c3c2)o1	active: 4.69 µM	
CC(C)(C)COc1ccc(-n2cc(C(=O)O)cn2)cc1C#N		inactive: 132%
CC(=O)Oc1cc2c(s1)CCN(C(C(=O)C1CC1)c1ccccc1F)C2 (centres undefined)	inconclusive: 1.18 µM [cytotoxic, full curve]	

(further entries)

| Compound | Potency | viability |
| --- | --- | --- |
| CC(=O)Oc1ccccc1C(=O)O |  | inactive: 133% |
| O=c1c2ccccc2nc2n1CCc1c-2[nH]c2ccccc12 |  | inactive: 90.2% |
| COc1ccc(CC2=NN3C([C@@H](CCc4ccccc4)[C@@H](C)O)=NC(C)C3C(=O)N2)cc1OC (some centres undefined) |  | inactive: 124% |
| CCOc1ccc(Cc2cc([C@@H]3O[C@H](CO)[C@@H](O)[C@H](O)[C@@H]3O)ccc2Cl)cc1 | active: 26.4 µM |  |
| CN1CCN(C2=Nc3cc(Cl)ccc3Nc3ccccc32)CC1 | inconclusive: 29.6 µM [cytotoxic, partial curve] |  |
| CCOC1OC(=O)C[C@H]1NC(=O)[C@@H]1CCCN1C(=O)[C@@H](NC(=O)c1ccc(N)c(Cl)c1)C(C)(C)C (some centres undefined) | active: 11.8 µM |  |
| O=C(CCN1CCN(C(=O)OCc2cc(Cl)cc(Cl)c2)CC1)c1ccc2[nH]c(=O)oc2c1 |  | inactive: 130% |
| O=C(O)c1cc(=O)c2c(OCC(O)COc3cccc4oc(C(=O)O)cc(=O)c34)cccc2o1 | inconclusive: 0.0083 µM [rising, full curve] |  |
| CO[C@H]1O[C@@H]2O[C@@]3(C)CC[C@@H]4[C@@H](C)CC[C@@H]([C@H]1C)[C@@]24OO3 | inconclusive: 5.26 µM [cytotoxic, partial curve, poor fit] |  |
| Cc1[nH]c(=O)c(C#N)cc1-c1ccc2nccn2c1 |  | inactive: 69.2% |
| Cc1c(OCC(F)(F)F)ccnc1CS(=O)c1nc2ccccc2[nH]1 (centres undefined) | active: 18.7 µM |  |
| CCCn1c(=O)c2[nH]c(C34CC5CC3C[C@@H](C5)C4)nc2n(CCC)c1=O | inconclusive: 0.0332 µM [cytotoxic, partial curve, poor fit] |  |
| C[C@H](NC(=O)[C@@H](O)c1cc(F)cc(F)c1)C(=O)N[C@@H]1C(=O)N(C)c2ccccc2-c2ccccc21 |  | inactive: 106% |
| Cc1ccc(NC(=O)c2ccc(CN3CCN(C)CC3)cc2)cc1Nc1nccc(-c2cccnc2)n1 | inconclusive: 33.2 µM [cytotoxic, single point] |  |
| Cc1[nH]c(=O)c(C#N)cc1-c1ccncc1 | inconclusive: 9.35 µM [cytotoxic, full curve] |  |
| Clc1ccc2nsnc2c1NC1=NCCN1 | inconclusive: 9.35 µM [rising, partial curve, poor fit] |  |
| COc1ccnc(CS(=O)c2nc3ccc(OC(F)F)cc3[nH]2)c1OC (centres undefined) | inconclusive: 29.6 µM [cytotoxic, partial curve, poor fit] |  |
| CCNC(=O)c1noc(-c2cc(C(C)C)c(O)cc2O)c1-c1ccc(CN2CCOCC2)cc1 | inconclusive: 4.69 µM [rising, full curve, poor fit] |  |
| CC(C)(O)[C@H]1CC[C@@](C)([C@H]2[C@@H](O)C[C@@]3(C)[C@@H]4C[C@H](O[C@@H]5O[C@H](CO)[C@@H](O)[C@H](O)[C@@H]5O)[C@H]5C(C)(C)[C@@H](O[C@@H]6OC[C@@H](O)[C@H](O)[C@@H]6O)CC[C@@]56C[C@@]46CC[C@]23C)O1 | inconclusive: 0.001 µM [cytotoxic] |  |
